PubChem BioAssay AID1259308 | NCATS, 2017

- Purpose: 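Candidate targets for better recombinant protein yield in mammalian cells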 (primary screen)
- System: human HEK293 embryonic kidney cells stably expressing firefly luciferase (HEK-CMV-Luc2-Hygro)
- Knock-down reagent: single siRNA against human genes, 0.8 pmol siRNA per well
- Timing: 72 h
- Read-out: 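Luciferase light (ONE-Glo) measured on one replicate plate set and viability (CellTiter-Glo) on the other, scaled to a negative control siRNA, with robust z-scores and luciferase per cell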
- Scale: total luciferase, z-score and total luciferase, % of control: higher = more reporter protein produced; luciferase per cell, z-score: higher = more reporter output per viable cell
- Active means: 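An siRNA counts as active if its total luciferase robust z-score exceeds 3; genes with two or more such siRNAs out of three were retested with fresh siRNAs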
- Calls: active = raised luciferase; inactive = no rise
This is an unselected part of about 59,000 reagents. Over the whole deposit, about 1,510 (2.6%) got an active call. 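Calls use total luciferase alone and ignore viability, so some active siRNAs may act by altering cell number.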 Reagents against one gene are numbered here. Not all columns of the deposit are shown.

| target gene | reagent | total luciferase, z-score | total luciferase, % of control | luciferase per cell, z-score | Call |
| --- | --- | --- | --- | --- | --- |
| CTTN | 1 | -0.777 | 66.4 | -1.24 | inactive |
| CTTN | 2 | -0.695 | 68.1 | -0.746 | inactive |
| CTTN | 3 | -0.745 | 67.1 | -0.723 | inactive |
| CT55P1 | 1 | -0.77 | 66.6 | -0.279 | inactive |
| CT55P1 | 2 | -0.297 | 76 | -0.067 | inactive |
| CT55P1 | 3 | 1.11 | 104 | 0.603 | inactive |
| ATXN3 | 1 | -0.0999 | 79.9 | -0.622 | inactive |
| ATXN3 | 2 | 0.178 | 85.4 | 0.184 | inactive |
| ATXN3 | 3 | 2.6 | 134 | 2.31 | inactive |
| RUSC1 | 1 | 2.41 | 130 | 2.29 | inactive |
| RUSC1 | 2 | 0.692 | 95.7 | 0.543 | inactive |
| RUSC1 | 3 | 0.613 | 94.1 | -0.000744 | inactive |
| DENND1C | 1 | -0.601 | 69.9 | 0.164 | inactive |
| DENND1C | 2 | -0.923 | 63.5 | -1.2 | inactive |
| DENND1C | 3 | -0.349 | 75 | -1.21 | inactive |
| PEA15 | 1 | 1.05 | 103 | 0.714 | inactive |
| PEA15 | 2 | -2.42 | 33.8 | -1.13 | inactive |
| PEA15 | 3 | -1.37 | 54.6 | -1.15 | inactive |
| STARD10 | 1 | 0.101 | 83.9 | 0.292 | inactive |
| STARD10 | 2 | -1.51 | 51.8 | -1.37 | inactive |
| STARD10 | 3 | 0.309 | 88 | 2.24 | inactive |
| KRT126P | 1 | 1.45 | 111 | 1.19 | inactive |
| KRT126P | 2 | -0.452 | 72.9 | -0.39 | inactive |
| KRT126P | 3 | 0.15 | 84.9 | 0.649 | inactive |

The list goes on, starting with the last 8 of the part before.
| target gene | reagent | total luciferase, z-score | total luciferase, % of control | luciferase per cell, z-score | Call |
| --- | --- | --- | --- | --- | --- |
| PEA15 | 2 | -2.42 | 33.8 | -1.13 | inactive |
| PEA15 | 3 | -1.37 | 54.6 | -1.15 | inactive |
| STARD10 | 1 | 0.101 | 83.9 | 0.292 | inactive |
| STARD10 | 2 | -1.51 | 51.8 | -1.37 | inactive |
| STARD10 | 3 | 0.309 | 88 | 2.24 | inactive |
| KRT126P | 1 | 1.45 | 111 | 1.19 | inactive |
| KRT126P | 2 | -0.452 | 72.9 | -0.39 | inactive |
| KRT126P | 3 | 0.15 | 84.9 | 0.649 | inactive |
| CTSC | 1 | -0.656 | 68.8 | 1.93 | inactive |
| CTSC | 2 | -0.783 | 66.3 | -1.28 | inactive |
| CTSC | 3 | -0.329 | 75.3 | -0.596 | inactive |
| CDC37P1 | 1 | 0.275 | 87.4 | 1.11 | inactive |
| CDC37P1 | 2 | -1.57 | 50.7 | -1.52 | inactive |
| CDC37P1 | 3 | 3.01 | 142 | 2.99 | active |
| ACSM6 | 1 | 0.958 | 101 | 1.27 | inactive |
| ACSM6 | 2 | 0.71 | 96 | 0.273 | inactive |
| ACSM6 | 3 | -0.0785 | 80.3 | 0.32 | inactive |
| NTN4 | 1 | -1.63 | 49.5 | -1.23 | inactive |
| NTN4 | 2 | 0.576 | 93.3 | 1.13 | inactive |
| NTN4 | 3 | 1.93 | 120 | 2.05 | inactive |
| AKAP8L | 1 | -0.883 | 64.3 | -0.426 | inactive |
| AKAP8L | 2 | 0.435 | 90.5 | 0.263 | inactive |
| AKAP8L | 3 | -0.0336 | 81.2 | -0.424 | inactive |
| EVA1C | 1 | -0.0632 | 80.6 | -0.354 | inactive |
| EVA1C | 2 | 1.02 | 102 | 0.0567 | inactive |
| EVA1C | 3 | 0.606 | 93.9 | 0.771 | inactive |
| SLC1A6 | 1 | 0.573 | 93.3 | 0.483 | inactive |
| SLC1A6 | 2 | -0.348 | 75 | -0.476 | inactive |
| SLC1A6 | 3 | -2.51 | 32 | -3.07 | inactive |
| ALMS1P1 | 1 | -1.33 | 55.5 | -1.47 | inactive |
| ALMS1P1 | 2 | 1.18 | 105 | 1.31 | inactive |
| ALMS1P1 | 3 | -0.68 | 68.4 | -0.466 | inactive |
| GLRB | 1 | -0.581 | 70.3 | -0.848 | inactive |
| GLRB | 2 | 0.607 | 94 | 0.58 | inactive |
| GLRB | 3 | -0.388 | 74.2 | -1.07 | inactive |
| VMP1 | 1 | 1 | 102 | 0.965 | inactive |
| VMP1 | 2 | 0.4 | 89.8 | 0.217 | inactive |
| VMP1 | 3 | 0.0224 | 82.3 | -0.41 | inactive |
| CCDC170 | 1 | 0.284 | 87.5 | 0.22 | inactive |
| CCDC170 | 2 | -0.367 | 74.6 | -0.139 | inactive |
| CCDC170 | 3 | 0.924 | 100 | 0.673 | inactive |
